Results are given in words; binding and its absence hold for the method and conditions named. Some entries that bind do so weakly or less than the wild type.

Amino acid sequences for entries named in this document (tags omitted).
UniProt Q3MHM5: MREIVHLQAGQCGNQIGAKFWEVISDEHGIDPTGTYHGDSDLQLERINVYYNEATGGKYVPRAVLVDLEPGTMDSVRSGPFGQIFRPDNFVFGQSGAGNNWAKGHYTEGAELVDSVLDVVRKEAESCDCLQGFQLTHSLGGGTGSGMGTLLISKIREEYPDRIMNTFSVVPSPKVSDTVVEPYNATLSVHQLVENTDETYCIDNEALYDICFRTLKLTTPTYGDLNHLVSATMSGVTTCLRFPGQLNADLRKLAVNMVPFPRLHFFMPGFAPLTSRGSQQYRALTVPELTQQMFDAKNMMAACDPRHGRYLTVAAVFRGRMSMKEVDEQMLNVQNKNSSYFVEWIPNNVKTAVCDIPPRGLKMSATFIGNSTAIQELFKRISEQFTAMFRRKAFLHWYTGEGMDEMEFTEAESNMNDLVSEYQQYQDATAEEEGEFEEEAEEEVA
UniProt A0A3Q1LJD6: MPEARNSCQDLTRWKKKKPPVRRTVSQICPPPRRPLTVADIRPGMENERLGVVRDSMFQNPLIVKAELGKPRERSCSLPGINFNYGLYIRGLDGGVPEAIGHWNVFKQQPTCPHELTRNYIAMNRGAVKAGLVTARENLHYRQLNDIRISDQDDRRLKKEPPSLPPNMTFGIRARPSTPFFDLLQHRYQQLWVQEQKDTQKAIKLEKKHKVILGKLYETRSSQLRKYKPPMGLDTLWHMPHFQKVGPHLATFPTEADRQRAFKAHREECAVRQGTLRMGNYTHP

Data on 1 substance can be found in doi:10.1101/2022.09.29.510157.

For the experiment, the target named is β-tubulin (TUBB4B) (bovine (endogenous in bovine sperm)) (UniProt Q3MHM5). Nature of the experiment: cryo-EM structure.

With CFAP77 (from UniProt A0A3Q1LJD6 1-284), the binding result is reported as “binds”.
